Results on 26 sequences are retold here after the supplement of paper PMC10338343.

± gives the standard deviation. Some of the results follow. Many of these values have a large error.

One experiment deals with EfPiwi piRISC loaded with L1MC piRNA (26 nt). Kind of experiment: pre-steady-state target cleavage rate (min^-1); guide: L1MC piRNA 5'p-UAACUAAAUACUAUGCAAGCUGUAGG; MIWI and MILI are mouse PIWI proteins and EfPiwi is from a freshwater sponge; tags in brackets are library labels; higher = faster piRNA-guided slicing of the target. Conditions: auxiliary factor: 500 nM Ephydatia muelleri Gtsf1. How it is done: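 Cleave-'n-Seq: a library of target RNAs (target site in constant flanks) at […] was incubated with 1 nM active freshwater sponge Ephydatia fluviatilis Piwi piRISC (synthetic 5'-monophosphorylated piRNA guide) with or without 500 nM EmGtsf1 at 33 °C for 1 min to 16 h. Uncleaved targets were sequenced and the pooled three trials fitted to a burst-and-steady-state model to give the pre-steady-state cleavage rate (min^-1). Sequence is the target site only. Fits with R² ≤ 0 are excluded.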
As to UCCUGGUACACGAUGCAUAGUAUUUUCAAA, the “pre-steady-state target cleavage rate” value was found to be 0.000415 ± 0.0093.
For UCCUGGAUGUCGAUGCUUACUAUUUAGUUA, the “pre-steady-state target cleavage rate” value stood at 0.000841 ± 0.0068.
Same read-out and setting: under UCCUCCUUCAGCUUGCAUAGUAUUUAGAUA stands 0.00476 ± 0.0027.
The same measure, in the same setting: under UCCUGGAUGUCCUUGCAUACUAUUUAGAUA stands 0.0031 ± 0.0039; under UCCUGGAACGAGCUUGCAUAGUAUUUAGUUA, 0.00926 ± 0.0022; under UCCUGCUACAGCUUGCAUAGUAUGUUAGUUA, 0.00247 ± 0.002.
UCCUGGAUGUCCUUGCAUAGUAUUUACUAA: the “pre-steady-state target cleavage rate” value was determined as 0.00221 ± 0.0033.
Take UCCUGGAUGUCGAUGCAUAGUACUUAGUUA: the “pre-steady-state target cleavage rate” value was determined as 0.00454 ± 0.0029.
Regarding UCCUGGAAGUCCUUGCAUAGUAUUUAGAAA, the “pre-steady-state target cleavage rate” value is 0.00315 ± 0.0023.
Regarding UCCUCCUACAGCUUGCAUUGUAUUUAGAUA, the “pre-steady-state target cleavage rate” value stood at 0.00539 ± 0.0029.
For UCCUGGAUGUCGUUGCAUAGAUUUUAGUUA, the “pre-steady-state target cleavage rate” value is 0.000318 ± 0.0076.
For the sequence UCCUGGAUGAGCUUGCAUAGUAUAUAGUUA, the “pre-steady-state target cleavage rate” value amounted to 0.00625 ± 0.0026.
In the case of UCCUGGAUGUCCUUGCGAUAGUAUUUAGUUA, the “pre-steady-state target cleavage rate” value was 0.00153 ± 0.0035.
Still for that read-out and setting: with UCCUGGAACAGCUUGCAUAGAAUUUAGAAA the figure was 0.00137 ± 0.0034; with UCCUCCUACAGCUUGCAAUCUAUUUAGUUA, 0.00376 ± 0.0036; with “UCCUGGAACAGCUUGCUAUCAUAAAUCAAA [g15:g23:cont:t1A]”, 0.0014 ± 0.0052.
On the same count and under the same terms, with UCCUCCUUCAGCUUGCAUUGUAUUUAGUUA the figure was 0.0307 ± 0.0077.
Take UCCUGGAUCAGGUUGCAUACUAUUUAGUUA: the “pre-steady-state target cleavage rate” value was 0.00262 ± 0.0019.
Turning to UCCUGGUACAGCUUGGAUAGUAUUUAGAUA, the “pre-steady-state target cleavage rate” value came out at 0.00238 ± 0.0025.
The same measure, in the same setting: with UCCUGGUUGUGCUUGCAUAGUAUUUAGAAA the figure was 0.00415 ± 0.0022; with UCCUGCUACAGCUUGCAUAGAUUUUAGUAA, 0.0033 ± 0.0022; with UCCUCCUAGAGCUUGCAAAGUAUUUAGUUA, 0.0214 ± 0.006.
In the case of UCCUGGAUCACCUUGCAUAGUAAUUAGUUA, the “pre-steady-state target cleavage rate” value was found to be 0.123 ± 0.049.
UCCUGGAUGAGCUUGCAUAGUAAAAAGAAA: the “pre-steady-state target cleavage rate” value is 0.00116 ± 0.0061.
Take UCCUGGAUGAGCUUGCAGAGUAUUUAGUUA: the “pre-steady-state target cleavage rate” value was 0.00252 ± 0.0031.

Staying with this experiment, now noted: auxiliary factor: none (no Gtsf1).
UCCUGGAUGUCGAUGCUUACUAUUUAGUUA: the “pre-steady-state target cleavage rate” value was determined as 0.000134 ± 0.055.
As to UCCUGGAUGUCCUUGCAUACUAUUUAGAUA, the “pre-steady-state target cleavage rate” value was less than 0.0001.
UCCUGGAUGUCGAUGUAUAGUAUUUAGUUA: the “pre-steady-state target cleavage rate” value worked out at 0.000499 ± 0.017.
Same read-out and setting: with UCCUGGAACGAGCUUGCAUAGUAUUUAGUUA the figure was 0.000917 ± 0.0087; with UCCUGCUACAGCUUGCAUAGUAUGUUAGUUA, 0.000511 ± 0.017; with UCCUGGAAGUCCUUGCAUAGUAUUUAGAAA, 0.000113 ± 0.023.
With UCCUGGAUGUCGUUGCAUAGAUUUUAGUUA, the “pre-steady-state target cleavage rate” value came out at 0.000162 ± 0.041.
Same read-out and setting: with UCCUGGAUGAGCUUGCAUAGUAUAUAGUUA the figure was 0.00169 ± 0.006; with UCCUCCUACAGCUUGCAAUCUAUUUAGUUA, 0.000898 ± 0.0056; with “UCCUGGAACAGCUUGCUAUCAUAAAUCAAA [g15:g23:cont:t1A]”, less than 0.0001.
Take UCCUGGAUCAGGUUGCAUACUAUUUAGUUA: the “pre-steady-state target cleavage rate” value was 0.000601 ± 0.017.
In the case of UCCUGGUACAGCUUGGAUAGUAUUUAGAUA, the “pre-steady-state target cleavage rate” value worked out at 0.000273 ± 0.031.
Turning to UCCUGCUACAGCUUGCAUAGAUUUUAGUAA, the “pre-steady-state target cleavage rate” value worked out at 0.000373 ± 0.011.
As to UCCUGGAUGAGCUUGCAUAGUAAAAAGAAA, the “pre-steady-state target cleavage rate” value was found to be 0.000634 ± 0.016.
Still for that read-out and setting: with UCCUGGAUGAGCUUGCAGAGUAUUUAGUUA the figure was 0.000293 ± 0.039.
